Here are results for 2 molecules from ChEMBL document CHEMBL1129977, “Antitumor agents. 172. Synthesis and biological evaluation of novel deacetamidothiocolchicin-7-ols and ester analogs as antitubulin agents” (J Med Chem, 1997).

Amino acid sequences for entries named in this document (tags omitted).
UniProt P02550, whole entry, looked up: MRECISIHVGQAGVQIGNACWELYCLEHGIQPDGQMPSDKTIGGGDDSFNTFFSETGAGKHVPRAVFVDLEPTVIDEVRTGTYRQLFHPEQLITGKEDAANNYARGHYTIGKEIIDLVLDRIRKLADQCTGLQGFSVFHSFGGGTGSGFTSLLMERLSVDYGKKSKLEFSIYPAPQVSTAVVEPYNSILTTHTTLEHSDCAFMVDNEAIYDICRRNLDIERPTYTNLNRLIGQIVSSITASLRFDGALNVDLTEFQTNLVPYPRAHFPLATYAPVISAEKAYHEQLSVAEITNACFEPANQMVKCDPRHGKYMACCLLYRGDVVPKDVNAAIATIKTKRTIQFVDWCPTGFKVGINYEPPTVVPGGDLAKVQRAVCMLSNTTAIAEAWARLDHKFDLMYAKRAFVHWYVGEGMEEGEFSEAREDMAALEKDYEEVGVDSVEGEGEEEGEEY

For orientation: inhibition means the change of the read-out against control, counted positive when it falls. A high value points to a strong effect. The IC50 is the midpoint of a concentration-inhibition curve. High values mean a need for much substance, low ones inhibition by little substance.

SMILES strings stand for the structures.

The target of assay [1] is Tubulin alpha chain (Sus scrofa) (UniProt P02550). The note with it: at 5 µM.
In the next assay the test system is CA46. Nature of the assay: Inhibits the growth of the human Burkitt lymphoma CA46 cell. It is filed as functional, cell-based.

For `COc1cc2c(c(OC)c1OC)-c1ccc(SC)c(=O)cc1[C@@H](N)CC2`, the inhibition in assay [1] turned out to be 49%. Moreover, the IC50 with CA46 was 38 µM. As for `COc1cc2c(c(OC)c1OC)-c1ccc(SC)c(=O)cc1[C@@H](NC(C)=O)CC2`, the inhibition in assay [1] was 45%.
